T1: NuoF, subunit of E. coli respiratory complex I, His-tagged (from plasmid pBADnuoHis / pBADnuo HisnuoF) (E. coli) (UniProt P31979)
T1 sequence: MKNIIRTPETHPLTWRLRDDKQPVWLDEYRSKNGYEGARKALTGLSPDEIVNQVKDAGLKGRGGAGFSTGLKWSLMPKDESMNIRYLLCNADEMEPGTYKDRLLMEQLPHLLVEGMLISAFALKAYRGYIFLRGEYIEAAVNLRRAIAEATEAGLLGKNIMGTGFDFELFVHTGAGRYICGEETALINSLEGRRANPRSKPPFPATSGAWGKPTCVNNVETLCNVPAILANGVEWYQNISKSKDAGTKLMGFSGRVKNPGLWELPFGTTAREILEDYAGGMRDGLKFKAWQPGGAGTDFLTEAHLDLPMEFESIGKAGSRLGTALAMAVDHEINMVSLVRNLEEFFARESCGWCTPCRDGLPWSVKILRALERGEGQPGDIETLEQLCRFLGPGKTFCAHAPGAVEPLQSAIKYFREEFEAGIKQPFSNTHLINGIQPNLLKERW

B1: NuoG, subunit of E. coli respiratory complex I (protein, UniProt P33602 1-908)
chain: MATIHVDGKEYEVNGADNLLEACLSLGLDIPYFCWHPALGSVGACRQCAVKQYQNAEDTRGRLVMSCMTPASDGTFISIDDEEAKQFRESVVEWLMTNHPHDCPVCEEGGNCHLQDMTVMTGHSFRRYRFTKRTHRNQDLGPFISHEMNRCIACYRCVRYYKDYADGTDLGVYGAHDNVYFGRPEDGTLESEFSGNLVEICPTGVFTDKTHSERYNRKWDMQFAPSICQQCSIGCNISPGERYGELRRIENRYNGTVNHYFLCDRGRFGYGYVNLKDRPRQPVQRRGDDFITLNAEQAMQGAADILRQSKKVIGIGSPRASVESNFALRELVGEENFYTGIAHGEQERLQLALKVLREGGIYTPALREIESYDAVLVLGEDVTQTGARVALAVRQAVKGKAREMAAAQKVADWQIAAILNIGQRAKHPLFVTNVDDTRLDDIAAWTYRAPVEDQARLGFAIAHALDNSAPAVDGIEPELQSKIDVIVQALAGAKKPLIISGTNAGSLEVIQAAANVAKALKGRGADVGITMIARSVNSMGLGIMGGGSLEEALTELETGRADAVVVLENDLHRHASAIRVNAALAKAPLVMVVDHQRTAIMENAHLVLSAASFAESDGTVINNEGRAQRFFQVYDPAYYDSKTVMLESWRWLHSLHSTLLSREVDWTQLDHVIDAVVAKIPELAGIKDAAPDATFRIRGQKLAREPHRYSGRTAMRANISVHEPRQPQDIDTMFTFSMEGNNQPTAHRSQVPFAWAPGWNSPQAWNKFQDEVGGKLRFGDPGVRLFETSENGLDYFTSVPARFQPQDGKWRIAPYYHLFGSDELSQRAPVFQSRMPQPYIKLNPADAAKLGVNAGTRVSFSYDGNTVTLPVEIAEGLTAGQVGLPMGMSGIAPVLAGAHLEDLKEAQQ
B2: NuoH, subunit of E. coli respiratory complex I (parental) (protein, UniProt P0AFD4 1-325)
chain: MSWISPELIEILLTILKAVVILLVVVTCGAFMSFGERRLLGLFQNRYGPNRVGWGGSLQLVADMIKMFFKEDWIPKFSDRVIFTLAPMIAFTSLLLAFAIVPVSPGWVVADLNIGILFFLMMAGLAVYAVLFAGWSSNNKYSLLGAMRASAQTLSYEVFLGLSLMGVVAQAGSFNMTDIVNSQAHVWNVIPQFFGFITFAIAGVAVCHRHPFDQPEAEQELADGYHIEYSGMKFGLFFVGEYIGIVTISALMVTLFFGGWQGPLLPPFIWFALKTAFFMMMFILIRASLPRPRYDQVMSFGWKICLPLTLINLLVTAAVILWQAQ
B3: NuoH D213G, subunit of the D213G^H variant of E. coli respiratory complex I (protein, UniProt P0AFD4 1-325)
chain: MSWISPELIEILLTILKAVVILLVVVTCGAFMSFGERRLLGLFQNRYGPNRVGWGGSLQLVADMIKMFFKEDWIPKFSDRVIFTLAPMIAFTSLLLAFAIVPVSPGWVVADLNIGILFFLMMAGLAVYAVLFAGWSSNNKYSLLGAMRASAQTLSYEVFLGLSLMGVVAQAGSFNMTDIVNSQAHVWNVIPQFFGFITFAIAGVAVCHRHPFGQPEAEQELADGYHIEYSGMKFGLFFVGEYIGIVTISALMVTLFFGGWQGPLLPPFIWFALKTAFFMMMFILIRASLPRPRYDQVMSFGWKICLPLTLINLLVTAAVILWQAQ

These are yes or no findings as the source states them, for the method shown. Some entries that bind do so weakly or less than the wild type. Tags and fused reporters may be left off the sequences shown.

The assay addresses T1, NuoF, subunit of E. coli respiratory complex I, His-tagged (from plasmid pBADnuoHis / pBADnuo HisnuoF) (E. coli). Briefly: co-purification (Ni2+ affinity chromatography and size exclusion chromatography, SDS-PAGE); LMNG extract of cytoplasmic membranes applied to ProBond Ni2+-IDA (His tag), washed with 116 mM imidazole, eluted with 308 mM imidazole at pH 6.8, then Superose 6 in buffer A*MNG; 4 °C; subunits seen by SDS-PAGE.
Take B1: the binding result is “binds”.

In the case of B2, the binding entry was “binds”.

Take B3: the binding result is on record as “binds”.

(Values after publication PMC8209014.)
